The values that follow come from US7238491.

Chains of the proteins cited; added tags and fusions are not shown.
UniProt P19793: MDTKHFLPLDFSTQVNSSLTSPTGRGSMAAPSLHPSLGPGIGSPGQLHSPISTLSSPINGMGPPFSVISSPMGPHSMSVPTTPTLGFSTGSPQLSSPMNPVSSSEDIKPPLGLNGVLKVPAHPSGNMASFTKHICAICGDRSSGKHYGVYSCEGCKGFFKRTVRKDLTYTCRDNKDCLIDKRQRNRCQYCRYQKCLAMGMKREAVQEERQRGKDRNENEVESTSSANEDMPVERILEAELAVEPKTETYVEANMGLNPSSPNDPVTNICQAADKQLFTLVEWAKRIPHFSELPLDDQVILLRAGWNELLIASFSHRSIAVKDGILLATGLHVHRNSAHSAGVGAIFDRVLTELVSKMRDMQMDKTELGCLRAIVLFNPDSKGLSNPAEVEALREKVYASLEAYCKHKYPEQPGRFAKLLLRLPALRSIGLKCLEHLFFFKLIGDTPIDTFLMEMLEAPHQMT

For test [1], the target named is human 9-cis retinoic acid receptor RXR (hRXR), synthesized in vitro (human) (UniProt P19793). In words: band shift assay, in vitro translated proteins on radiolabeled CYP3A4 IR6 oligonucleotide.
The target is the same in test [2]. In words: band shift assay, in vitro translated proteins on radiolabeled CYP3A4 IR6 oligonucleotide; neither protein bound the DNA alone.

Results are given in words; binding and its absence hold for the method and conditions named. Some results given as binding are weak or reduced against the parent protein; the word gives no strength.

B1: mouse pregnane X receptor 1 (mPXR1), synthesized in vitro (receptor, UniProt O54915 1-431, looked up)
chain: MRPEESWSRVGLVQCEEADSALEEPINVEEEDGGLQICRVCGDKANGYHFNVMTCEGCKGFFRRAMKRNVRLRCPFRKGTCEITRKTRRQCQACRLRKCLESGMKKEMIMSDAAVEQRRALIKRKKREKIEAPPPGGQGLTEEQQALIQELMDAQMQTFDTTFSHFKDFRLPAVFHSGCELPEFLQASLLEDPATWSQIMKDRVPMKISLQLRGEDGSIWNYQPPSKSDGKEIIPLLPHLADVSTYMFKGVINFAKVISYFRDLPIEDQISLLKGATFEMCILRFNTMFDTETGTWECGRLAYCFEDPNGGFQKLLLDPLMKFHCMLKKLQLHKEEYVLMQAISLFSPDRPGVVQRSVVDQLQERFALTLKAYIECSRPYPAHRFLFLKIMAVLTELRSINAQQTQQLLRIQDSHPFATPLMQELFSSTDG
With B1, the binding result in test [1] is on record as “binds”.

B2: human pregnane X receptor (hPXR), synthesized in vitro (receptor)
chain: LEVRPKESWNHADFVHCEDTESVPGKPSVNADEEVGGPQICRVCGDKATGYHFNVMTCEGCKGFFRRAMKRNARLRCPFRKGACEITRKTRRQCQACRLRKCLESGMKKEMIMSDEAVEERRALIKRKKSERTGTQPLGVQGLTEEQRMMIRELMDAQMKTFDTTFSHFKNFRLPGVLSSGCELPESLQAPSREEAAKWSQVRKDLCSLKVSLQLRGEDGSVWNYKPPADSGGKEIFSLLPHMADMSTYMFKGIISFAKVISYFRDLPIEDQISLLKGAAFELCQLRFNTVFNAETGTWECGRLSYCLEDTAGGFQQLLLEPMLKFHYMLKKLQLHEEEYVLMQAISLFSPDRPGVLQHRVVDQLQEQFAITLKSYIECNRPQPAHRFLFLKIMAMLTELRSINAQHTQRLLRIQDIHPFATPLMQELFGITGS
Regarding B2, the binding result in test [2] is recorded as “binds”.
